Assay results: patent publication CN109942705A
Results are given in words; binding and its absence hold for the method and conditions named. Some results given as binding are weak or reduced against the parent protein; the word gives no strength.

T1: 绵羊MSTN蛋白 (绵羊 (sheep)) (UniProt O18830)
T1 sequence (looked up): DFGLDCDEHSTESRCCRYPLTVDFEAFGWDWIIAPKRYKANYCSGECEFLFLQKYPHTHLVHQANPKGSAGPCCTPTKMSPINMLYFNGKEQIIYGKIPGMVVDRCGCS

B1: 双价绵羊MSTN纳米抗体 (VHH)
chain: GTQLQLVESGGGSVQAGGSLSLSCAASGYTYVSRYMGWFRQAPGNEREGVATIYTAGISTYYDASVKGRFTISKDNAKNTVYLQMNSLKPEDTAMYYCAATHDDYGGSGSRLSPASYAYWGQGTQVTVSSEPKTPKPQGPRGLGGGGSGGGGSGGGGSQLQLVESGGGSVQAGGSLSLSCAASGYTYVSRYMGWFRQAPGNEREGVATIYTAGISTYYDASVKGRFTISKDNAKNTVYLQMNSLKPEDTAMYYCAATHDDYGGSGSRLSPASYAYWGQGTQVTVSSEPKTPKPQGPRGLLE
B2: 单价绵羊MSTN纳米抗体 (VHH)
VHH: QLQLVESGGGSVQAGGSLSLSCAASGYTYVSRYMGWFRQAPGNEREGVATIYTAGISTYYDASVKGRFTISKDNAKNTVYLQMNSLKPEDTAMYYCAATHDDYGGSGSRLSPASYAYWGQGTQVTVSS

Experiments:
绵羊MSTN蛋白 (绵羊 (sheep)) [1] = biological target: T1, 绵羊MSTN蛋白 (绵羊 (sheep)); experiment: ELISA, MSTN protein coated at 200 ng/well, nanobody in serial dilution, anti-alpaca secondary antibody
绵羊MSTN蛋白 (绵羊 (sheep)) [2] = biological target: T1, 绵羊MSTN蛋白 (绵羊 (sheep)); experiment: phage display panning and ELISA screening (earlier work of the same laboratory)

Binder	binding (绵羊MSTN蛋白 (绵羊 (sheep)) [1])	binding (绵羊MSTN蛋白 (绵羊 (sheep)) [2])
B1	binds	
B2		binds
